The test deals with T1, GST-CSK SH2 domain (UniProt P41240).
T1 sequence: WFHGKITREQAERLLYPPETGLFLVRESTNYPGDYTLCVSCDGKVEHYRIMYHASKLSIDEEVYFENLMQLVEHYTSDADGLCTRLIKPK
Put plainly: pull-down.

These are yes or no findings as the source states them, for the method shown. Binding seen in cells or lysates may run through a third protein. Tags and fused reporters may be left off the sequences shown.

As to “GFP-PAR-3 ΔCter (rat) (domain or fragment)”, the binding result is on record as “no binding”.
